Results are given in words; binding and its absence hold for the method and conditions named. Binding seen in cells or lysates may run through a third protein. Some results given as binding are weak or reduced against the parent protein; the word gives no strength. For some of these results: Sequences can lack the tags named with a protein.
Tests used:
TFE3::EGFP = TFE3::EGFP (UniProt P19532); experiment: proximity ligation; Duolink PLA in WT HeLa cells expressing TFE3::EGFP or MITF::EGFP, indicated plasmids transiently transfected; untreated or 1 mM LLOMe for 3 h
MITF::EGFP = MITF::EGFP (UniProt O75030); experiment: as above
TFEB::EGFP [1] = target: TFEB::EGFP (UniProt P19484); experiment: condition: only untreated control cells (without LLOMe); proximity ligation; Duolink PLA in HeLa cells stably expressing TFEB::EGFP, 3×FLAG::APEX1 transiently transfected; untreated control cells (no LLOMe); anti-FLAG and anti-GFP primary antibodies
TFEB::EGFP [2] = target: TFEB::EGFP (UniProt P19484); experiment: proximity ligation; Duolink PLA in WT or ATG7 KO HeLa cells stably expressing TFEB::EGFP, 3×FLAG::APEX1 transiently transfected; 1 mM LLOMe for 1 h or 3 h; anti-FLAG (mouse) and anti-GFP (rabbit) primary antibodies
[3] = target: TFEB (as used in the PLA with mNG::APEX1 WT and mutants, Figure S4 M) (UniProt P19484); experiment: proximity ligation; Duolink PLA in WT HeLa cells stably expressing mNG::stop, mNG::APEX1 WT or mNG::APEX1 mutants, transfected with siAPEX1; indicated plasmids transiently transfected; untreated or 1 mM LLOMe for 1 h
[4] = target: TFEB::mNG (transcription factor EB fused to mNeonGreen) (UniProt P19484); experiment: co-IP; WT or ATG7 KO HeLa cells with or without stable TFEB::mNG, 3×FLAG-tagged protein transiently transfected; untreated or 1 mM LLOMe for 3 h; 0.1% formaldehyde cross-linking; HEPES-RIPA lysate; mNG-Trap magnetic agarose beads at 4°C overnight; immunoblots of FLAG and TFEB

Amino acid sequences for entries named in this document (tags omitted). A change or cut given only in a name is not applied to a line headed by its entry.
UniProt P19532: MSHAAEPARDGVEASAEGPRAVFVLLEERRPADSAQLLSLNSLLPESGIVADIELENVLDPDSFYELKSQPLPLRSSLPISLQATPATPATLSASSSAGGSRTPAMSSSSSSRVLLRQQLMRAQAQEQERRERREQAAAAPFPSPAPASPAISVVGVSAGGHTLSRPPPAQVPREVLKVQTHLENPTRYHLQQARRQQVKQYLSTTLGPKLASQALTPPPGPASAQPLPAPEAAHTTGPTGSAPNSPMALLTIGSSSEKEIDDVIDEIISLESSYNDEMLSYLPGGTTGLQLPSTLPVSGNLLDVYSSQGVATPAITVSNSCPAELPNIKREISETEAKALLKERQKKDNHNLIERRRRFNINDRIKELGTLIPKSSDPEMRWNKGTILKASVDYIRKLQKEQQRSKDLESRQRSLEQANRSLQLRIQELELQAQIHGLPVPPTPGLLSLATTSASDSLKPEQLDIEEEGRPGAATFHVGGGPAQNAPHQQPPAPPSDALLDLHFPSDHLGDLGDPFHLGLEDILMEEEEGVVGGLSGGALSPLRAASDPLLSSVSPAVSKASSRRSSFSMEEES
UniProt O75030: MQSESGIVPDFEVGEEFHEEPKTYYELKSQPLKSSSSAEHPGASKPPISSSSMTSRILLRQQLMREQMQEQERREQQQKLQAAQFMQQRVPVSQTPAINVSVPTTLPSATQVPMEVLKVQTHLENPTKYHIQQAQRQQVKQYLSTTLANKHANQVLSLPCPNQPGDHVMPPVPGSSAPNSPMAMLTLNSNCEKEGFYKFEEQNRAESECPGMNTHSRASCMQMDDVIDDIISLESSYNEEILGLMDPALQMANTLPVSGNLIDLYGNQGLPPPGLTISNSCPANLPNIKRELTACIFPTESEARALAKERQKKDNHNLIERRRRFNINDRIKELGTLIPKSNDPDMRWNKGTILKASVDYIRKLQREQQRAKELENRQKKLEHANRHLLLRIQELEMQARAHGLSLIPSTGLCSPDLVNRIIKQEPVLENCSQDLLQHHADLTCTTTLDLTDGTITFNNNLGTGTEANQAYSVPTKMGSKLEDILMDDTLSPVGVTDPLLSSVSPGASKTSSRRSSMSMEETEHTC
UniProt P19484: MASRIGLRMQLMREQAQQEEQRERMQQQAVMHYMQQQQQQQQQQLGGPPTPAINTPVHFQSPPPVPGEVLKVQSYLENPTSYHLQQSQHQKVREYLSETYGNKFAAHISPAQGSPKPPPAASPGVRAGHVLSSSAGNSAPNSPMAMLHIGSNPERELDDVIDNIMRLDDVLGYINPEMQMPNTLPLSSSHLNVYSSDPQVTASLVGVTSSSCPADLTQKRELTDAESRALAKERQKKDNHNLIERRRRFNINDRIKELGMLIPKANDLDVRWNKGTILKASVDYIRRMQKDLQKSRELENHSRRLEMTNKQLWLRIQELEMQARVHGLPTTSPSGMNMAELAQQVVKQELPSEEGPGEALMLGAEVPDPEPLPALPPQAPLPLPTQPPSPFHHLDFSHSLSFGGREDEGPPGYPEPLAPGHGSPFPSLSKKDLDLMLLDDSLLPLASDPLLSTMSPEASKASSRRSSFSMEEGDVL
UniProt P27695: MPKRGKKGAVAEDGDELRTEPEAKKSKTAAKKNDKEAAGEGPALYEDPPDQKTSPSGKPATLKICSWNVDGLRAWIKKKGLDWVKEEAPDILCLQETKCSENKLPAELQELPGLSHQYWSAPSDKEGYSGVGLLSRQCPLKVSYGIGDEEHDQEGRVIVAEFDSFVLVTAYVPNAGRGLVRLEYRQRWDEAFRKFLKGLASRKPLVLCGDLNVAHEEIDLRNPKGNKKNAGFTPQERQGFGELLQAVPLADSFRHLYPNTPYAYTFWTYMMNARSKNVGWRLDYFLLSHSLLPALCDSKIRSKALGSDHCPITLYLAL

With “3×FLAG::APEX1 (from UniProt P27695 1-318)” the binding (TFE3::EGFP) was “no binding”, the binding (MITF::EGFP) was “no binding” and the binding (TFEB::EGFP [1]) was “no binding”. The binding (TFEB::EGFP [2]) was “binds”.

With “mNG::APEX1 C65A (redox inactive APEX1 mutant, KD-resistant) (from UniProt P27695 1-318)” the binding [3] was “no binding”.

“mNG::APEX1 Δ1-33 (nuclear localization signal depleted APEX1 mutant, KD-resistant) (from UniProt P27695 34-318) (domain or fragment)” was tested, and the binding [3] was “no binding”.

B1: 3×FLAG::TRIP6 (protein, UniProt Q15654 1-476)
chain: MSGPTWLPPKQPEPARAPQGRAIPRGTPGPPPAHGAALQPHPRVNFCPLPSEQCYQAPGGPEDRGPAWVGSHGVLQHTQGLPADRGGLRPGSLDAEIDLLSSTLAELNGGRGHASRRPDRQAYEPPPPPAYRTGSLKPNPASPLPASPYGGPTPASYTTASTPAGPAFPVQVKVAQPVRGCGPPRRGASQASGPLPGPHFPLPGRGEVWGPGYRSQREPGPGAKEEAAGVSGPAGRGRGGEHGPQVPLSQPPEDELDRLTKKLVHDMNHPPSGEYFGQCGGCGEDVVGDGAGVVALDRVFHVGCFVCSTCRAQLRGQHFYAVERRAYCEGCYVATLEKCATCSQPILDRILRAMGKAYHPGCFTCVVCHRGLDGIPFTVDATSQIHCIEDFHRKFAPRCSVCGGAIMPEPGQEETVRIVALDRSFHIGCYKCEECGLLLSSEGECQGCYPLDGHILCKACSAWRIQELSATVTTDC
For B1, the binding [4] was “binds”.
